# Results published in PubChem BioAssay AID504834 (National Center for Advancing Translational Sciences (NCATS), 2011).
# The campaign covered roughly 320,000 compounds. About 22,000 (6.9%) were called active. This list was built around the results that the source calls inconclusive (neither active nor inactive); the mix of calls is not that of the screen. Calls come from the whole dose curve; as a rule, active = well fitted inhibition curve with a large enough effect; inconclusive = small, poorly fitted or top-dose-only effect, or another doubt; inactive = no such curve, though single readings can be large or run the other way. Where the call is inconclusive, the potency comes from a doubtful curve fit.
# Assay: Primary qHTS for delayed death inhibitors of the malarial parasite plastid, 96 hour incubation
# Conditions: P. falciparum luciferase reporter growth; series mostly up to 28.7 µM
# How it was run: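 Two parasite generations (96 h, 37 C, 5% CO2) of compound exposure in infected erythrocytes (0.05% parasitemia, 2% hematocrit). Luciferase-reporter P. falciparum; decreased luminescence indicates inhibited growth, aimed at apicoplast-acting delayed death.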
# % is set by controls: 0 for no effect and ±100 for the full control effect; potency is the fitted concentration of half-maximal effect.
SMILES,Potency,"activity change, negative = inhibition"
Nc1ccc(OCCc2ccccc2)cc1,"inconclusive: 16.5 µM [inhibitor, partial curve, poor fit]",
CN(Cc1ccccc1)C(=O)CN1C(=O)COc2ccc(S(=O)(=O)N3CCCC3)cc21,"inconclusive: 11.7 µM [inhibitor, single point]",
CCOc1ccccc1NC(=O)CCS(=O)(=O)c1cccc2nonc12,"inconclusive: 2.62 µM [inhibitor, full curve, poor fit]",
CCC(=O)Nc1nonc1-c1nc2ccccc2n1Cc1cccc2ccccc12,active: 5.22 µM,
COc1ccc(CCNS(=O)(=O)c2ccc(C(=O)NCc3ccco3)cc2)cc1OC,,inactive: 11.4% [at 5.75 µM]
O=C(CCn1cccc1)Nc1ccc(OC(F)(F)F)cc1,"inconclusive: 14.7 µM [inhibitor, partial curve, poor fit]",
CCc1ccc(C(=O)N2CCC(c3nc4ccccc4s3)CC2)cc1,active: 3.29 µM,
Cc1cc(NC(=O)CCC(=O)N(Cc2ccco2)C2(C(=O)NC3CCCC3)CCCCC2)no1,"inconclusive: 5.22 µM [inhibitor, partial curve]",
Cc1cc(NC(=O)CSCC(=O)Nc2nc3ccccc3s2)no1,inactive,
Brc1ccccc1OCCCCCN1CCCC1,"inconclusive: 4.65 µM [inhibitor, single point]",
COCCn1c(C)cc(C(=O)COC(=O)c2ccc3c(c2)NC(=O)CS3)c1C,"inconclusive: 13.1 µM [inhibitor, single point]",
O=C(Cn1ncc2c([nH]c3ccccc32)c1=O)NCC1CCN(Cc2ccc(F)cc2)CC1,"inconclusive: 8.28 µM [inhibitor, partial curve]",
CC(C)NC(=O)c1cc(-c2ccco2)on1,"inconclusive: 0.657 µM [inhibitor, single point]",
CCCc1cc(C(=O)Nc2cc(Cl)ccc2O)no1,"inconclusive: 1.65 µM [inhibitor, full curve]",
Cc1ccc(CS(=O)Cc2ccc(C(=O)NC3CCCCC3)o2)cc1 (stereo unspecified),"inconclusive: 18.5 µM [inhibitor, single point]",
O=C(CCS(=O)(=O)c1cc(Br)cc2c1N(C(=O)C1CC1)CC2)N1CCN(c2ccccn2)CC1,inactive,
NS(=O)(=O)c1ccc(CCNS(=O)(=O)c2ccc3c(c2)NC(=O)CO3)cc1,inactive,
COc1ccc(N(Cc2cc3cc(C)ccc3[nH]c2=O)C(C)=O)cc1,"inconclusive: 18.5 µM [inhibitor, single point]",
Cc1ccc(CN2C(=O)CSC2c2ccc(F)cc2)cc1 (stereo unspecified),inactive,
CCOC(=O)c1c(CN2CCOCC2)n(-c2ccccc2)c2cc(Br)c(O)c(CN(C)C)c12,active: 2.62 µM,
CSc1cccc(CN2CCCC(CNC(=O)c3ccc(F)cc3)C2)c1 (stereo unspecified),"inconclusive: 11.7 µM [inhibitor, single point]",
CC(=O)NC1=NN(C(C)=O)C2(S1)C(=O)N(C(C)C)c1ccc(C)cc12 (stereo unspecified),"inconclusive: 0.522 µM [inhibitor, full curve]",
CCOc1c2ccc(C(=O)NCC34CC5CC(CC(C5)C3)C4)cc2nn1CC,"inconclusive: 0.294 µM [inhibitor, full curve]",
Clc1ccc2nc(CSc3nncn3-c3ccccc3)cn2c1,inactive,

SMILES,Potency,"activity change, negative = inhibition"
CCOC(=O)c1sc(/N=C/c2c(C)[nH]n(-c3ccccc3)c2=O)c(C#N)c1C,inactive,
Cc1ccc(C(=O)N/C(=C\c2ccc(Cl)cc2)C(=O)NCCCN2CCOCC2)cc1,inactive,
Cc1cccc(CCNC(=O)Cn2ncc3c([nH]c4ccc(C)cc43)c2=O)c1,inactive,
Cn1cc([N+](=O)[O-])c(C(=O)Nc2sc3c(c2C#N)CCC3)n1,inactive,
COc1cc(Cl)c(C)cc1NC(=O)CNC(C)c1ccccc1OC (stereo unspecified),active: 9.28 µM,
Cc1ccc2c(c1)Oc1ccc([N+](=O)[O-])cc1C(=O)N2,"inconclusive: 1.85 µM [inhibitor, full curve, poor fit]",
Cc1c(C(=O)Nc2nccs2)sc2nc(-c3cccs3)cc(C(F)(F)F)c12,"inconclusive: 0.0828 µM [inhibitor, full curve, poor fit]",
C=CCN(c1ccc(C(=O)NCCCn2ccnc2)cc1)S(C)(=O)=O,active: 9.28 µM,
Cc1ccc(C(=O)NCC(=O)NCc2cc(=O)n(C)c(=O)n2C)cc1C,"inconclusive: 18.5 µM [inhibitor, single point]",
Cc1ccc(-n2nc(C)c(/C=N/NC(=O)c3cccs3)c2Cl)cc1,"inconclusive: 18.5 µM [inhibitor, single point]",
COc1ccc(N(C)S(=O)(=O)c2cccc(C(=O)Nc3cc(OC)ccc3OC)c2)cc1,"inconclusive: 18.5 µM [inhibitor, single point]",
CC(C)CCOc1ccc(C(=O)NCC(c2ccco2)N(C)C)cc1 (stereo unspecified),inactive,
O=C(Nc1ccccc1C(=O)N1CCOCC1)C1CC(=O)N(C2CCCC2)C1 (stereo unspecified),"inconclusive: 13.1 µM [inhibitor, partial curve, poor fit]",
COC(=O)C1CC(=O)c2ccsc2C1 (stereo unspecified),inactive,
O=C(Nc1ccccc1Cl)c1ccc2nc(N3CCOCC3)sc2c1,"inconclusive: 18.5 µM [inhibitor, single point]",
Cc1c(C(=O)NC2CC2)oc2ccccc12,inactive,
O=C(NCC(=O)N(Cc1cccs1)C(C(=O)NC1CCCCC1)c1cccnc1)c1ccco1 (stereo unspecified),"inconclusive: 18.5 µM [inhibitor, single point]",
Cc1ccc(C(=O)NCC(=O)N2CCCC(C(F)(F)F)C2)s1 (stereo unspecified),inactive,
Cc1ccc(CNC(=O)C23CN(Cc4ccccc4)CC2C(c2ccc([N+](=O)[O-])cc2)=NO3)cc1 (stereo unspecified),"inconclusive: 18.5 µM [inhibitor, single point]",
Cc1nn(-c2ccccc2)c(Cl)c1/C=C/C(=O)c1ccccc1,"inconclusive: 18.5 µM [inhibitor, single point]",
COc1ccc(CNC(=O)C2CCC(CNc3c(N4CCCCC4)c(=O)c3=O)CC2)cc1 (stereo unspecified),inactive,
Cc1noc(C)c1C(=O)N1CCC2(CC1)Oc1ccc(F)cc1C(=O)C21CC(c2ccc(Cl)cc2)=NO1 (stereo unspecified),"inconclusive: 11.7 µM [inhibitor, single point]",
O=C(NNC(=O)c1ccccc1F)C1=NN(c2ccccc2)C(=O)CC1,"inconclusive: 0.738 µM [inhibitor, partial curve, poor fit]",
C=CCOc1cccc(/C=N/NC(=O)CC(=O)NC2CCCCC2)c1,"inconclusive: 14.7 µM [inhibitor, partial curve, poor fit]",

SMILES,Potency,"activity change, negative = inhibition"
COc1ccc(S(=O)(=O)N2CCOC23CCN(S(=O)(=O)c2cc(F)ccc2F)CC3)cc1,"inconclusive: 10.4 µM [inhibitor, single point]",
CSc1nc(-c2ccccc2)c(C#N)c(=O)n1C,inactive,
C=CCn1c(CCCOc2ccc(Cl)cc2Cl)n[nH]c1=S,"inconclusive: 0.0657 µM [inhibitor, full curve]",
CN1C(=O)c2ccc(NC(=O)CCS(=O)(=O)c3ccccc3)cc2C1=O,inactive,
Nc1c(-c2ccccc2)nc(Cl)nc1-c1ccccc1,inactive,
CCN(CC(=O)Nc1c(F)cccc1F)C(=O)C1CCN(C(=O)Nc2ccccc2)CC1,"inconclusive: 1.85 µM [inhibitor, partial curve, poor fit]",
CC(=O)c1ccc(NC(=O)CN2CCN(CC(=O)Nc3ccc(C(C)=O)cc3)CC2)cc1,inactive,
CCc1c(C)nc2ncnn2c1N1CCC(C(=O)N2CCN(c3ccc(F)cc3)CC2)CC1,"inconclusive: 13.1 µM [inhibitor, partial curve, poor fit]",
Cn1nc([N+](=O)[O-])nc1Sc1ccc(C(C)(C)C)cc1,"inconclusive: 3.29 µM [inhibitor, partial curve]",
CCOCC(=O)N1CCN(c2ccc([N+](=O)[O-])cc2)CC1,inactive,
CNC(=O)c1ccc(NC(=O)C2CCN(S(=O)(=O)c3cccc(C(F)(F)F)c3)CC2)cc1,"inconclusive: 13.1 µM [inhibitor, single point]",
O=C(NCCc1ccc(Cl)cc1)C1CCN(S(=O)(=O)N2CCC3(CC2)OCCO3)CC1,"inconclusive: 1.47 µM [inhibitor, partial curve]",
CCN(CC)S(=O)(=O)c1ccc(NC(=O)C2COc3ccccc3O2)cc1 (stereo unspecified),"inconclusive: 13.1 µM [inhibitor, single point]",
COc1ccc(CCNC(=O)C23CCC(C)(C(=O)C2=O)C3(C)C)cc1OC (stereo unspecified),"inconclusive: 4.15 µM [inhibitor, single point]",
CC(=O)Nc1cccc(NC(=O)CSc2nc(=O)n(Cc3ccncc3)c3c2CCC3)c1,"inconclusive: 7.38 µM [inhibitor, single point]",
COCCNc1ccc(-c2n[nH]c(=O)c3ccccc23)cc1[N+](=O)[O-],inactive,
CN1c2ccsc2/C(=N/Nc2ccc(F)cc2)CS1(=O)=O,"inconclusive: 18.5 µM [inhibitor, partial curve, poor fit]",
O=[N+]([O-])c1cc(S(=O)(=O)N2CCCC2)ccc1NCCc1ccccc1,"inconclusive: 0.738 µM [inhibitor, partial curve, poor fit]",
S=C(NCc1ccccc1)NCc1ccccn1,inactive,
Cc1ccc(OCC(=O)Oc2cccc(C)c2C)cc1,active: 11.7 µM,
CCOc1ccccc1CN1CCNC(=O)C1CC(=O)N(C)CCc1cnn(C)c1 (stereo unspecified),inactive,
OC[C@H]1O[C@@H](n2cnc3c(NC4CCCC4)nc(Cl)nc32)[C@H](O)[C@@H]1O,inactive,
CCN(CC)S(=O)(=O)c1ccc(C(=O)Nc2ccc(OCC(=O)N3CCOCC3)cc2)cc1,active: 0.37 µM,

# 2 entries from above, set out differently.
SMILES | Potency | activity change, negative = inhibition
COCCNc1ccc(-c2n[nH]c(=O)c3ccccc23)cc1[N+](=O)[O-] | inactive | 
CN1c2ccsc2/C(=N/Nc2ccc(F)cc2)CS1(=O)=O | inconclusive: 18.5 µM [inhibitor, partial curve, poor fit] | 
